Experimental findings from patent US20210309718A1 are described below.

Amino acid sequences for entries named in this document (tags omitted). A change or cut given only in a name is not applied to a line headed by its entry.
UniProt P22607: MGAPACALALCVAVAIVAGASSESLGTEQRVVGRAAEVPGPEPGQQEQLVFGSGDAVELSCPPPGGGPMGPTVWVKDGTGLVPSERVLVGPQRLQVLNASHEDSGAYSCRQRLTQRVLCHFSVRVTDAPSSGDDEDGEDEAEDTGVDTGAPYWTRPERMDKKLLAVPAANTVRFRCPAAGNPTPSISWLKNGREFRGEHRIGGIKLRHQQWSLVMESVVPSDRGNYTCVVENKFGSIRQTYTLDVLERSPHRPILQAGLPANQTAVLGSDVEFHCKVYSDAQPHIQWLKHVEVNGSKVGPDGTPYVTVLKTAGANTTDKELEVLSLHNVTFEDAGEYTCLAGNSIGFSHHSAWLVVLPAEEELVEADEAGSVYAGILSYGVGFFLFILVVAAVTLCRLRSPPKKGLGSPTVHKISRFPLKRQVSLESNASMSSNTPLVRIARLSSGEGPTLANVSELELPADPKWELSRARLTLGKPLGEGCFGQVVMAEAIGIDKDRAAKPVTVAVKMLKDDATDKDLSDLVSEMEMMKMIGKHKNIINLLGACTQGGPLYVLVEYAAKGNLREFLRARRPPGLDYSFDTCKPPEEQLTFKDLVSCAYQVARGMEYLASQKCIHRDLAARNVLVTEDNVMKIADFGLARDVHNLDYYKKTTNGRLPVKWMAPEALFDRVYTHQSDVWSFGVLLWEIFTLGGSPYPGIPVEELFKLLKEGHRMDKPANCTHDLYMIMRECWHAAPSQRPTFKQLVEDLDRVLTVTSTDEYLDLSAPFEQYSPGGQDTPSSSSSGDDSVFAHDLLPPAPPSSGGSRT
UniProt P09038: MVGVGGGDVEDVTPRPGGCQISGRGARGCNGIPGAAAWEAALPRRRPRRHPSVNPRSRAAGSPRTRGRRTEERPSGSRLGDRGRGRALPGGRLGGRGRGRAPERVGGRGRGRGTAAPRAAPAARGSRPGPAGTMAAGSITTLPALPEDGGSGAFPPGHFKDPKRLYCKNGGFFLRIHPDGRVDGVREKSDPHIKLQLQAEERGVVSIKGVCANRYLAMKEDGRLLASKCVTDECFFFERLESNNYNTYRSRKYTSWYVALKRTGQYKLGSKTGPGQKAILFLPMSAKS

Results are given in words; binding and its absence hold for the method and conditions named. Some entries that bind do so weakly or less than the wild type.

For assay [1], the target named is sFGFR3_Del4-D3 (human) (UniProt P22607). Put plainly: SPR (Biacore T200), immobilised sFGFR3_Del4-D3.
For assay [2] the target is unchanged. As to the kind of experiment: SPR (BIACORE T200), sFGFR3_Del4-D3 immobilised, hFGF2 as analyte; overlaid fit lines of the binding model.
In assay [3] the target is human FGF2 (human) (UniProt P09038). Put plainly: SPR, FGF2 binding activity and Kd compared for HEK 293 and CHO material.
For assay [4] the target is unchanged. Put plainly: SPR (BIACORE T200), hFGF2 immobilised on CM5 chip, analyte injected in five successive steps; concentrations not given.
Assay [5] has the same target. Put plainly: SPR (BIACORE T200), hFGF2 immobilised on CM5 chip, sFGFR3 polypeptide as analyte, five successive injections; concentrations not given.
Assay [6] shares this target. As to the kind of experiment: SPR (Biacore T200), immobilised hFGF2.

For the substance “human FGF2 (from UniProt P09038 143-288) (ligand)”, the binding result with sFGFR3_Del4-D3 (human) [1] and with sFGFR3_Del4-D3 (human) [2] was “binds” throughout.

Consider “sFGFR3_Del4 (from UniProt P22607 23-435) (receptor)”, for which the binding result with human FGF2 (human) [3], with human FGF2 (human) [4] and in the assay with human FGF2 (human) [5] was “binds” each time.

In the case of “sFGFR3_Del1 (from UniProt P22607 23-806) (receptor)”, the binding entry with human FGF2 (human) [3] and with human FGF2 (human) [5] was “binds” throughout.

As to “sFGFR3_Del4-C253S (from UniProt P22607 23-435) (receptor)”, the binding result in the assay with human FGF2 (human) [6], in the assay with human FGF2 (human) [4] and with human FGF2 (human) [5] was “binds” in each case.
